{"source": "patent US20210208149A1", "about": "“METHODS FOR CELL PROFILING” (priority 2018, published 2021)", "key": {"[1]": {"test_system": "U87", "settings": "GBM cell line U87; adapted from reference [13]; cited from earlier work"}, "[2]": {"test_system": "LN443", "settings": "GBM cell line LN443; adapted from reference [13]; cited from earlier work"}, "[3]": {"test_system": "U118", "settings": "GBM cell line U118; adapted from reference [13]; cited from earlier work"}, "[4]": {"test_system": "A172", "settings": "GBM cell line A172; adapted from reference [13]; cited from earlier work"}, "[5]": {"test_system": "control (HEK293S) and GBM cell lines (U87 and A172)", "test": "Cross-screening of fucoxanthin against control and GBM cell lines (FIG. 1)", "format": "cell-based", "settings": "HEK293S vs U87 and A172"}}, "note": "For some assays here: The name of at least one read-out is uncertain. For some assays here: For at least one compound, name, drawing or mass did not settle the structure.", "data": [{"compound": "CCC(C)n1ncn(-c2ccc(N3CCN(c4ccc(OCC5COC(Cn6cncn6)(c6ccc(Cl)cc6Cl)O5)cc4)CC3)cc2)c1=O", "note": "(centres unmarked) [Itraconazole]", "values": [{"measurement": "EC50", "setting": "[1]", "result": 0.389, "unit": "µM"}, {"measurement": "EC50", "setting": "[2]", "result": "> 20", "unit": "µM"}, {"measurement": "EC50", "setting": "[3]", "result": 1.46, "unit": "µM"}, {"measurement": "EC50", "setting": "[4]", "result": 6.97, "unit": "µM"}]}, {"compound": "Fucoxanthin", "values": [{"measurement": "response of the cell types to the compound (EC50 determinations, FIG. 1)", "setting": "[5]", "result": "differential response"}]}]}
